{"source": "paper doi:10.1101/2020.01.02.893016", "about": "(bioRxiv, 2020)", "binders": {"B1": {"name": "ROOTY (RTY) protein, wild type, C-S lyase (enzyme, UniProt Q9SIV0 1-462)", "chain": "MSEEQPHANLAVPAFKTEKEPITQTRNGQSSVWRFGGSDKAAKASTVTLRGVIYMLFDNCGKDVNKTILPLGHGDPSVYPCFRTCIEAEDAVVDVLRSGKGNSYGPGAGILPARRAVADYMNRDLPHKLTPEDIFLTAGCNQGIEIVFESLARPNANILLPRPGFPHYDARAAYSGLEVRKFDLLPEKEWEIDLEGIEAIADENTVAMVVINPNNPCGNVYSHDHLKKVAETARKLGIMVISDEVYDRTIFGDNPFVSMGKFASIVPVLTLAGISKGWVVPGWKIGWIALNDPEGVFETTKVLQSIKQNLDVTPDPATIIQAALPAILEKADKNFFAKKNKILKHNVDLVCDRLKDIPCVVCPKKPESCTYLLTKLELSLMDNIKDDIDFCVKLAREENLVFLPGDALGLKNWMRITIGVEAHMLEDALERLKGFCTRHAKKTETETESLQALKLSDNNLEM"}, "B2": {"name": "ROOTY (RTY) protein, D315N mutant (TG8B allele) (enzyme, Arabidopsis thaliana, UniProt Q9SIV0 1-462, looked up)", "chain": "B1 chain with D315N"}}, "key": {"[1]": {"target": "T1, ROOTY (RTY) protein, wild type, C-S lyase (Arabidopsis thaliana) (UniProt Q9SIV0)", "T1 sequence": "B1 chain", "experiment": "two-hybrid"}, "[2]": {"target": "T1, ROOTY (RTY) protein, wild type, C-S lyase (Arabidopsis thaliana)", "experiment": "two-hybrid", "remark": "listed apart in the source"}}, "note": "Changes are numbered by the printed parent chain. Names and notes keep the numbering of the source. Like-named read-outs stand apart in the source and are kept apart here. Results are given in words; binding and its absence hold for the method and conditions named. Some results given as binding are weak or reduced against the parent protein; the word gives no strength.", "data": [{"binder": "B1", "values": [{"measurement": "binding", "setting": "[1]", "result": "binds"}, {"measurement": "binding", "setting": "[2]", "result": "binds"}]}, {"binder": "B2", "values": [{"measurement": "binding", "setting": "[2]", "result": "binds"}]}]}
